At least one peptide structure holds a part that was inferred or is arguable (an end, a ring closure or a residue). Where no end group is shown, it is not given here.
Key:
[1] = target: T1, myristoylating enzyme from yeast (N-myristoylglycylpeptide synthetase) (Saccharomyces cerevisiae, UniProt P14743); experiment: Octapeptide substrate specificity / kinetic characterization with partially purified yeast myristoylating enzyme (Table II); assay type: biochemical; conditions: relative to Gly-Asn-Ala-Ala-Ala-Ala-Arg-Arg = 100
T1 construct: partially purified from a crude homogenate of the cultured yeast cells by fractionation with 51-70% (NH4)2 SO4; endogenous in cells; host or cells: S. cerevisiae strain JR153; ammonium sulfate cut, DEAE-Sepharose CL-6B, CoA-agarose
T1 sequence (P14743 1-455): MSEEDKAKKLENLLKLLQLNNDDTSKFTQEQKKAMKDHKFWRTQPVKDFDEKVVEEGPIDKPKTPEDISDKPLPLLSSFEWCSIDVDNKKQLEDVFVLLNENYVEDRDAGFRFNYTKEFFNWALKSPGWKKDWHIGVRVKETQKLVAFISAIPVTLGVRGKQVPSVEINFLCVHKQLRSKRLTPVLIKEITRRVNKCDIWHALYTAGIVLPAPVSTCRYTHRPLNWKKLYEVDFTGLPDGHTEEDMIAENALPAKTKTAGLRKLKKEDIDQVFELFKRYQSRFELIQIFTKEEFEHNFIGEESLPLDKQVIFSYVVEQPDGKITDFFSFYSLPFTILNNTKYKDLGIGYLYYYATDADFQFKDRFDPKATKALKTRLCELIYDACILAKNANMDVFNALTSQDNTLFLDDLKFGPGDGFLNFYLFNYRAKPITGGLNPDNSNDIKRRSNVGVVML
Procedure: The synthetic octapeptide Gly-Asn-Ala-Ala-Ala-Ala-Arg-Arg was initially used to identify a unique enzymatic activity which transfers myristic acid to the amino terminal glycine of this and other peptides. […] The enzyme activity was determined in an in vitro assay which measures the transfer of [^3 H]-myristic acid to the acceptor peptide. The transfer reaction is dependent on adenosine triphosphate (ATP) and coenzyme A (CoA). The enzymatic product was then identified by high performance liquid chromatography (HPLC) by co-elution with a chemically synthesized myristoyl peptide standard. […] Both contained M-myristoyl glycine.
[^3 H]Fatty acyl CoA was synthesized enzymatically and added to the incubation as follows. […] Typically, 40% to 50% of the [^3 H]fatty acid was converted to its CoA ester by this procedure as measured by determining the radioactivity remaining in the reaction after acidification with 6 N HCl to pH 2.0 and extraction 6 times with 5 volumes of heptane, a modification of the method of Hosaka et al., Meth. […] One minute fractions were collected and the radioactivity in each fraction determined by liquid scintillation counting. […]

[2] = target: T2, N-myristoylglycylpeptide synthetase (N-myristoyl transferase) (Saccharomyces cerevisiae, UniProt P14743); experiment: Assay for N-myristoylglycylpeptide synthetase activity, crude yeast membrane fractions (Table I); assay type: biochemical; conditions: Test 3: + 1 mM test peptide, 18 μM GlyAsnAlaAlaAlaAlaArgArg substrate, control without added peptide 26.7
T2 construct: the crude membrane pellet was resuspended by pipetting into 400 μl of cold assay lysis buffer; endogenous in cells; host or cells: S. cerevisiae strain JR153 (protease-deficient), crude membrane fraction
T2 sequence (P14743 1-455): T1 sequence (P14743 1-455)

Substance	Relative Vmax (%) [1]	Rate of Myristoylpeptide Synthesis [2]
GVAAAARR-NH2 [Gly--Val--Ala--Ala--Ala--Ala--Arg--Arg]	8%	–
GSSKSPKDPS-NH2 [GSSKSPKDPS]	–	27.4 DPM × 10^3 /10 min
GLAAAARR-NH2 [Gly--Leu--Ala--Ala--Ala--Ala--Arg--Arg]	5%	–

Reference: patent US4709012A, “Novel inhibitor peptides” (Washington University, priority 1986, dated 1987)
